Reference: PubChem BioAssay AID977607 (Broad Institute, 2014)
Screen size: about 1,500 compounds; about 460 (31%) were called active. The shares of active, inactive and inconclusive entries below differ from those in the screen.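 Rule for the calls: active = curve reaches 40% activation over neutral controls at an AC40 no higher than the top valid tested concentration; inconclusive = no clear call, values can overlap the other calls; inactive = signal moving opposite to the expected increase, and the rest.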

Experiment: activators of glucose-dependent insulin secretion, dose response, cell-based, INS-1E, Gaussia luciferase, luminescence, cherry-pick, set 2 (AID 977607);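 note: 0% = median of the plate neutral control wells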
Conditions: INS-1E GLuc insulin secretion reporter, 2-3 h, stronger effect = higher value, 100% = signal doubled over neutral wells; at 35 µM unless noted
For `CCCCN(Cc1nc2ccccc2c(=O)[nH]1)C(=O)c1nn(C)c(=O)c2ccccc12`, the max activation was inactive: -30.4% [at 0.0016 µM]. With `Cc1cccc(N2CCN(C(=O)c3cccn4c(=O)c5c(C)c(C)sc5nc34)CC2)c1C` the max activation was inactive: -13.3% [at 0.046 µM]. In the case of `COc1ccc(S(=O)(=O)N2CCCCC2)cc1NC(=O)C1CC1C` (configuration not stated), the max activation is reported as inconclusive: 42.7% [at 3.8 µM]. In the case of `Cc1ccc(SC[C@H](C)CN2CC[C@H](C(C)(C)C)CCC2=O)cc1`, the max activation is reported as inconclusive: 40.2% [at 0.42 µM]. In the case of `CCOc1ccc(CCNC(=O)COC(=O)c2ccc(C)s2)cc1OCC`, the max activation is reported as inconclusive: 43.4% [at 3.8 µM]. With `CC(=O)c1cccc(NC(=O)CCC(=O)Oc2ccc(C)cc2)c1` the max activation was inconclusive: 47.2% [at 11 µM]. For `Clc1ccc(OCCn2ccnc2)c(Cl)c1`, the max activation was inactive: 53.2%. With `CC(=O)Nc1cc(-c2ccc(N3CCN(C)CC3)cc2)cn2c(-c3cccc(C(=O)N(C)C)c3)cnc12` the max activation was inactive: -24% [at 0.046 µM]. With `OC(c1ccc(Cl)cc1)C(CN1CCOCC1)c1ccccc1` (configuration not stated) the max activation was inactive: -24.5%. With `CC(NC1CCN(Cc2ccccc2)CC1)c1ccc(F)cc1` (configuration not stated) the max activation was inconclusive: 28.7% [at 0.0016 µM]. With `CCOc1ccc(CCNS(=O)(=O)c2cn(C)cn2)cc1OCC` the max activation was inconclusive: 64.7% [at 3.8 µM]. In the case of `CN(C(=O)COC(=O)c1cccs1)c1ccccc1`, the max activation is reported as inactive: -16.8% [at 0.0016 µM]. With `COCCn1c(-c2ccc3ccccc3c2)nc2c1c(=O)[nH]c(=O)n2CC(C)C` the max activation was inconclusive: 41.7% [at 11 µM]. For `COc1cccc(CNC(=O)N[C@@H](CC(C)C)C(=O)O)c1`, the max activation was inconclusive: 50.5% [at 1.2 µM]. For `COc1cc2c(cc1OC)-c1cc(NCc3ccccn3)nc(=O)n1CC2`, the max activation was inconclusive: 65.8%. In the case of `O=c1cc(Cl)[nH]c(=O)n1Cc1ccccc1`, the max activation is reported as inactive: -18% [at 0.135 µM]. For `O=C(NN(Cc1ccccc1)Cc1ccccc1)c1ccccc1`, the max activation was inactive: 23.7% [at 1.2 µM]. With `COCc1[nH]nc2c1C(c1ccc(C)cc1)NC2=O` (configuration not stated) the max activation was inactive: 25.3%. With `Cc1cc(-c2ccc(Cl)cc2)n2nc(C)cc2n1` the max activation was inconclusive: 51.9% [at 11 µM]. For `CC(C)CCn1c(=O)c2ccccc2n2c(CN3CCOCC3)nnc12`, the max activation was inconclusive: 79%. For `COc1cc2ccccc2cc1C(=O)Nc1ccc2oc(=O)ccc2c1`, the max activation was inconclusive: 65.5%. In the case of `c1nc(N2CCOCC2)c2c3c(sc2n1)CCCC3`, the max activation is reported as inconclusive: 68%. In the case of `O=C1CSC(c2ccccc2)N1c1ccc(F)cc1F` (configuration not stated), the max activation is reported as inconclusive: 50.2% [at 1.2 µM]. With `C/C(=N/NC(=O)c1ccc(Br)o1)c1ccncc1` the max activation was inconclusive: 43.8% [at 1.2 µM]. With `O=C(O)c1cccc(N/N=C/c2sc(N3CCOCC3)nc2-c2ccccc2)c1` the max activation was inconclusive: 49.1% [at 1.2 µM]. In the case of `COc1ccc(CC(=O)OCC(=O)N2CCCc3ccccc32)cc1OC`, the max activation is reported as inconclusive: 64.6%. For `CCCCNC(=O)O[C@H]1C[C@@H]2CCN3C(=O)CCC[C@H]([C@H]1CC)[C@H]23`, the max activation was inconclusive: 46.9% [at 0.42 µM].
